Laboratory results from paper PMC11046838.
No constants are given. Whether binding was seen depends on the method and setting. In cells and extracts the contact can be indirect. Some binding calls cover weakened binding; strength is not graded here.

Molecular target: γH2AX (mouse (endogenous in DRGs of C57BL/6 mice)) (UniProt P27661)
Test: co-IP; Co-IP Kit (Roche); protein extracts (RIPA buffer) of 18 pooled L3/4/5 DRGs from 6 mice per group (sham; SNI with mitochondrial injection); pre-cleared with protein G-agarose, anti-γH2AX antibody 1 h, protein G-agarose overnight at 4 °C; CTCF detected by Western blot

B1: CTCF (protein, UniProt Q61164 1-736)
chain: MEGEAVEAIVEESETFIKGKERKTYQRRREGGQEEDACHLPQNQTDGGEVVQDVNSSVQMVMMEQLDPTLLQMKTEVMEGTVAPEAEAAVDDTQIITLQVVNMEEQPINIGELQLVQVPVPVTVPVATTSVEELQGAYENEVSKEGLAESEPMICHTLPLPEGFQVVKVGANGEVETLEQGELPPQEDSSWQKDPDYQPPAKKTKKTKKSKLRYTEEGKDVDVSVYDFEEEQQEGLLSEVNAEKVVGNMKPPKPTKIKKKGVKKTFQCELCSYTCPRRSNLDRHMKSHTDERPHKCHLCGRAFRTVTLLRNHLNTHTGTRPHKCPDCDMAFVTSGELVRHRRYKHTHEKPFKCSMCDYASVEVSKLKRHIRSHTGERPFQCSLCSYASRDTYKLKRHMRTHSGEKPYECYICHARFTQSGTMKMHILQKHTENVAKFHCPHCDTVIARKSDLGVHLRKQHSYIEQGKKCRYCDAVFHERYALIQHQKSHKNEKRFKCDQCDYACRQERHMIMHKRTHTGEKPYACSHCDKTFRQKQLLDMHFKRYHDPNFVPAAFVCSKCGKTFTRRNTMARHADNCAGPDGVEGENGGETKKSKRGRKRKMRSKKEDSSDSEENAEPDLDDNEEEEEPAVEIEPEPEPQPQPPPPPQPVAPAPPPAKKRRGRPPGRTNQPKQNQPTAIIQVEDQNTGAIENIIVEVKKEPDAEPAEGEEEEAQAATTDAPNGDLTPEMILSMMDR
With B1 the binding was “binds”.
